Results are given in words; binding and its absence hold for the method and conditions named. Some entries that bind do so weakly or less than the wild type.

The chains behind the UniProt entries cited, without tags or fusion partners.
UniProt P11484: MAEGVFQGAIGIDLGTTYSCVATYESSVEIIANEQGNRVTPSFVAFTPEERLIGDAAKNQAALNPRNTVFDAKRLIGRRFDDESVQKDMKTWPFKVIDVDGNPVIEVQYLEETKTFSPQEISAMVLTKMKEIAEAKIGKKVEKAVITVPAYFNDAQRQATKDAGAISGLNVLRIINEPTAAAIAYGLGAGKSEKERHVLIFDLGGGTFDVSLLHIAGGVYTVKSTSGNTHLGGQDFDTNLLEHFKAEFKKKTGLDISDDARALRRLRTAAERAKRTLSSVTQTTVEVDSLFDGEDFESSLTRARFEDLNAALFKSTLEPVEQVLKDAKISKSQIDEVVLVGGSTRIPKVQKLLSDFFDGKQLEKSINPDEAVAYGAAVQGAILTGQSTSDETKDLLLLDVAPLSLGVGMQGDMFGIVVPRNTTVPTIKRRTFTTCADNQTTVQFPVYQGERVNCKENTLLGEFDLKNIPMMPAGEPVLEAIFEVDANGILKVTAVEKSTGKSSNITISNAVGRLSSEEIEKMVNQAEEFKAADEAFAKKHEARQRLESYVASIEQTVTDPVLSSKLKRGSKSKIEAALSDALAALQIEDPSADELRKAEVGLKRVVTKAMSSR

The test has as its target Ssb1 (Stress-Seventy subfamily B, Hsp70 heat shock protein) (S. cerevisiae) (UniProt P11484). In words: Ssb1-mediated selective ribosome profiling.

B1: Hxt3 nascent chains at the ribosome (protein, UniProt P32466 1-567)
chain: MNSTPDLISPQKSSENSNADLPSNSSQVMNMPEEKGVQDDFQAEADQVLTNPNTGKGAYVTVSICCVMVAFGGFVFGWDTGTISGFVAQTDFLRRFGMKHKDGSYYLSKVRTGLIVSIFNIGCAIGGIILAKLGDMYGRKMGLIVVVVIYIIGIIIQIASINKWYQYFIGRIISGLGVGGIAVLSPMLISEVAPKEMRGTLVSCYQLMITLGIFLGYCTNFGTKNYSNSVQWRVPLGLCFAWALFMIGGMTFVPESPRYLVEAGQIDEARASLSKVNKVAPDHPFIQQELEVIEASVEEARAAGSASWGELFTGKPAMFKRTMMGIMIQSLQQLTGDNYFFYYGTTVFNAVGMSDSFETSIVFGVVNFFSTCCSLYTVDRFGRRNCLLYGAIGMVCCYVVYASVGVTRLWPNGEGNGSSKGAGNCMIVFACFYIFCFATTWAPIAYVVISETFPLRVKSKAMSIATAANWLWGFLIGFFTPFITGAINFYYGYVFMGCMVFAYFYVFFFVPETKGLTLEEVNDMYAEGVLPWKSASWVPTSQRGANYDADALMHDDQPFYKKMFGKK
For the molecule B1, the binding entry was “binds”.

B2: Tna1 nascent chains at the ribosome (protein, UniProt P53322 1-534)
chain: MSNKFTMESPKHLVDDVLFISPTNDGSEEKPTEVTFQEDEGHDASLHNRSHDKKSELATEREIMATTTDDDGIPSPSHPMEKRVLRKMDIYLIPLMGMLYFLSNLDKSNIGNAEVAGLSKDIHLVGTQYNTCVTVFFATYVLFDPIGTNLLKIMGPPLMMSICLTCFGAISLGTAWVKNYAQLIVVRLLLGAFEGMIYPAINMYLSVCYRREQYALRFAFVFSAACLSSSFGGLIAYGCSKISGSLKDWQYIYIVEGCISLGFVPFYAFGLSKNLEDSWFFNKEEKEYISERYKTMNTFDPDEKFEWFQVWQAVKDVKTWASAVALFGIDLTTFGLTVFLPIIITSMGFTNVRAQLMTVPIYFLTAIVFFICAVWSDRIKLRSPFILGACLTTSIGIAIVLGSQVHGVRYFGVYILCMGIYVNAACNCLWLSGNTGNYFKRATALGINLFFGSGSGLVSGQIFVAKDKPRYIKGLSISLAFQVFSIFMTVVQIFLYKRENDKKKAIIDRCNELGEPIPYDERLSDKNPEFKYMY
Turning to B2, the binding result is recorded as “binds”.

B3: Pho84 nascent chains at the ribosome (protein, UniProt P25297 1-587)
chain: MSSVNKDTIHVAERSLHKEHLTEGGNMAFHNHLNDFAHIEDPLERRRLALESIDDEGFGWQQVKTISIAGVGFLTDSYDIFAINLGITMMSYVYWHGSMPGPSQTLLKVSTSVGTVIGQFGFGTLADIVGRKRIYGMELIIMIVCTILQTTVAHSPAINFVAVLTFYRIVMGIGIGGDYPLSSIITSEFATTKWRGAIMGAVFANQAWGQISGGIIALILVAAYKGELEYANSGAECDARCQKACDQMWRILIGLGTVLGLACLYFRLTIPESPRYQLDVNAKLELAAAAQEQDGEKKIHDTSDEDMAINGLERASTAVESLDNHPPKASFKDFCRHFGQWKYGKILLGTAGSWFTLDVAFYGLSLNSAVILQTIGYAGSKNVYKKLYDTAVGNLILICAGSLPGYWVSVFTVDIIGRKPIQLAGFIILTALFCVIGFAYHKLGDHGLLALYVICQFFQNFGPNTTTFIVPGECFPTRYRSTAHGISAASGKVGAIIAQTALGTLIDHNCARDGKPTNCWLPHVMEIFALFMLLGIFTTLLIPETKRKTLEEINELYHDEIDPATLNFRNKNNDIESSSPSQLQHEA
B3: the binding entry is “binds”.

B4: Arn3/Sit1 nascent chains at the ribosome (protein, UniProt P39980 1-628)
chain: MDPGIANHTLPEEFEEVVVPEMLEKEVGAKVDVKPTLTTSSPAPSYIELIDPGVHNIEIYAEMYNRPIYRVALFFSLFLIAYAYGLDGNIRYTFQAYATSSYSQHSLLSTVNCIKTVIAAVGQIFFARLSDIFGRFSIMIVSIIFYSMGTIIESQAVNITRFAVGGCFYQLGLTGIILILEVIASDFSNLNWRLLALFIPALPFIINTWISGNVTSAIDANWKWGIGMWAFILPLACIPLGICMLHMRYLARKHAKDRLKPEFEALNKLKWKSFCIDIAFWKLDIIGMLLITVFFGCVLVPFTLAGGLKEEWKTAHIIVPEVIGWVVVLPLYMLWEIKYSRHPLTPWDLIQDRGIFFALLIAFFINFNWYMQGDYMYTVLVVAVHESIKSATRITSLYSFVSVIVGTILGFILIKVRRTKPFIIFGISCWIVSFGLLVHYRGDSGAHSGIIGSLCLLGFGAGSFTYVTQASIQASAKTHARMAVVTSLYLATYNIGSAFGSSVSGAVWTNILPKEISKRISDPTLAAQAYGSPFTFITTYTWGTPERIALVMSYRYVQKILCIIGLVFCFPLLGCAFMLRNHKLTDSIALEGNDHLESKNTFEIEEKEESFLKNKFFTHFTSSKDRKD
As to B4, the binding entry is given as “binds”.

B5: Hxt1 nascent chains at the ribosome (low-affinity hexose transporter) (protein, UniProt P32465 1-570)
chain: MNSTPDLISPQKSNSSNSYELESGRSKAMNTPEGKNESFHDNLSESQVQPAVAPPNTGKGVYVTVSICCVMVAFGGFIFGWDTGTISGFVAQTDFLRRFGMKHHDGSHYLSKVRTGLIVSIFNIGCAIGGIVLAKLGDMYGRRIGLIVVVVIYTIGIIIQIASINKWYQYFIGRIISGLGVGGITVLSPMLISEVAPSEMRGTLVSCYQVMITLGIFLGYCTNFGTKNYSNSVQWRVPLGLCFAWALFMIGGMMFVPESPRYLVEAGRIDEARASLAKVNKCPPDHPYIQYELETIEASVEEMRAAGTASWGELFTGKPAMFQRTMMGIMIQSLQQLTGDNYFFYYGTIVFQAVGLSDSFETSIVFGVVNFFSTCCSLYTVDRFGRRNCLMWGAVGMVCCYVVYASVGVTRLWPNGQDQPSSKGAGNCMIVFACFYIFCFATTWAPIAYVVISECFPLRVKSKCMSIASAANWIWGFLISFFTPFITGAINFYYGYVFMGCMVFAYFYVFFFVPETKGLSLEEVNDMYAEGVLPWKSASWVPVSKRGADYNADDLMHDDQPFYKSLFSRK
With B5, the binding entry is listed as “binds”.

B6: Itr1 nascent chains at the ribosome (protein, UniProt P30605 1-584)
chain: MGIHIPYLTSKTSQSNVGDAVGNADSVEFNSEHDSPSKRGKITLESHEIQRAPASDDEDRIQIKPVNDEDDTSVMITFNQSLSPFIITLTFVASISGFMFGYDTGYISSALISIGTDLDHKVLTYGEKEIVTAATSLGALITSIFAGTAADIFGRKRCLMGSNLMFVIGAILQVSAHTFWQMAVGRLIMGFGVGIGSLIAPLFISEIAPKMIRGRLTVINSLWLTGGQLVAYGCGAGLNYVNNGWRILVGLSLIPTAVQFTCLCFLPDTPRYYVMKGDLARATEVLKRSYTDTSEEIIERKVEELVTLNQSIPGKNVPEKVWNTIKELHTVPSNLRALIIGCGLQAIQQFTGWNSLMYFSGTIFETVGFKNSSAVSIIVSGTNFIFTLVAFFSIDKIGRRTILLIGLPGMTMALVVCSIAFHFLGIKFDGAVAVVVSSGFSSWGIVIIVFIIVFAAFYALGIGTVPWQQSELFPQNVRGIGTSYATATNWAGSLVIASTFLTMLQNITPAGTFAFFAGLSCLSTIFCYFCYPELSGLELEEVQTILKDGFNIKASKALAKKRKQQVARVHELKYEPTQEIIEDI
For B6, the binding entry is given as “binds”.

B7: Arn4/Enb1 nascent chains at the ribosome (protein, UniProt Q08299 1-606)
chain: MLETDHSRNDNLDDKSTVCYSEKTDSNVEKSTTSGLRRIDAVNKVLSDYSSFTAFGVTFSSLKTALLVALFLQGYCTGLGGQISQSIQTYAANSFGKHSQVGSINTVKSIVASVVAVPYARISDRFGRIECWIFALVLYTIGEIISAATPTFSGLFAGIVIQQFGYSGFRLLATALTGDLSGLRDRTFAMNIFLIPVIINTWVSGNIVSSVAGNVAPYKWRWGYGIFCIIVPISTLILVLPYVYAQYISWRSGKLPPLKLKEKGQTLRQTLWKFADDINLIGVILFTAFLVLVLLPLTIAGGATSKWREGHIIAMIVVGGCLGFIFLIWELKFAKNPFIPRVYLGDPTIYVALLMEFVWRLGLQIELEYLVTVLMVAFGESTLSAQRIAQLYNFLQSCTNIVVGIMLHFYPHPKVFVVAGSLLGVIGMGLLYKYRVVYDGISGLIGAEIVVGIAGGMIRFPMWTLVHASTTHNEMATVTGLLMSVYQIGDAVGASIAGAIWTQRLAKELIQRLGSSLGMAIYKSPLNYLKKYPIGSEVRVQMIESYSKIQRLLIIVSISFAAFNAVLCFFLRGFTVNKKQSLSAEEREKEKLKIKQQSWLRRVIGY
For B7, the binding entry is given as “binds”.
